The other results are listed elsewhere or left out.
Compound: Cc1cc(ccc1-c1ccccc1)C(=O)N1CCCN(CC1)C(=O)CCl [compound 10]
Assay: probe-labelled cysteine peptide fold change vs DMSO (competition) (log2 fold change); higher = less target engagement (more negative = stronger competition)
Conditions: 10 µM; THP-1; incubation time: 4 h
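Also: competitive profiling in live THP-1 cells: cysteine peptides tagged with an iodoacetamide desthiobiotin (IA-DTB) probe, intensity after compound treatment relative to DMSO-treated cells.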

Amino acid sequences for entries named in this document (tags omitted). A change or cut given only in a name is not applied to a line headed by its entry.
UniProt Q9UH65: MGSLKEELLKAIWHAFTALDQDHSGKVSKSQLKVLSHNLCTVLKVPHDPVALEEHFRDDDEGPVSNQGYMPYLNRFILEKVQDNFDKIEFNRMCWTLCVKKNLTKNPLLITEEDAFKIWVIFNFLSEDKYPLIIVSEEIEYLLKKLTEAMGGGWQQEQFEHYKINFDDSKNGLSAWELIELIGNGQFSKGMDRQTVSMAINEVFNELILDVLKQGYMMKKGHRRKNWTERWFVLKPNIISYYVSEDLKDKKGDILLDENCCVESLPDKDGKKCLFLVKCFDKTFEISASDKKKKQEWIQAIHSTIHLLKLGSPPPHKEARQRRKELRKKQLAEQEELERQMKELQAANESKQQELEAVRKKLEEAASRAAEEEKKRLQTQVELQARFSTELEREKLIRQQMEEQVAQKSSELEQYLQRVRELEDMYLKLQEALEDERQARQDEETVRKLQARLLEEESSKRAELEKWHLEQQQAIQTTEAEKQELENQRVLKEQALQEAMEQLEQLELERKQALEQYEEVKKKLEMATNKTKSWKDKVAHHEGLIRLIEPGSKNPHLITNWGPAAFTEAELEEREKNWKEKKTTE
UniProt Q9BXP5: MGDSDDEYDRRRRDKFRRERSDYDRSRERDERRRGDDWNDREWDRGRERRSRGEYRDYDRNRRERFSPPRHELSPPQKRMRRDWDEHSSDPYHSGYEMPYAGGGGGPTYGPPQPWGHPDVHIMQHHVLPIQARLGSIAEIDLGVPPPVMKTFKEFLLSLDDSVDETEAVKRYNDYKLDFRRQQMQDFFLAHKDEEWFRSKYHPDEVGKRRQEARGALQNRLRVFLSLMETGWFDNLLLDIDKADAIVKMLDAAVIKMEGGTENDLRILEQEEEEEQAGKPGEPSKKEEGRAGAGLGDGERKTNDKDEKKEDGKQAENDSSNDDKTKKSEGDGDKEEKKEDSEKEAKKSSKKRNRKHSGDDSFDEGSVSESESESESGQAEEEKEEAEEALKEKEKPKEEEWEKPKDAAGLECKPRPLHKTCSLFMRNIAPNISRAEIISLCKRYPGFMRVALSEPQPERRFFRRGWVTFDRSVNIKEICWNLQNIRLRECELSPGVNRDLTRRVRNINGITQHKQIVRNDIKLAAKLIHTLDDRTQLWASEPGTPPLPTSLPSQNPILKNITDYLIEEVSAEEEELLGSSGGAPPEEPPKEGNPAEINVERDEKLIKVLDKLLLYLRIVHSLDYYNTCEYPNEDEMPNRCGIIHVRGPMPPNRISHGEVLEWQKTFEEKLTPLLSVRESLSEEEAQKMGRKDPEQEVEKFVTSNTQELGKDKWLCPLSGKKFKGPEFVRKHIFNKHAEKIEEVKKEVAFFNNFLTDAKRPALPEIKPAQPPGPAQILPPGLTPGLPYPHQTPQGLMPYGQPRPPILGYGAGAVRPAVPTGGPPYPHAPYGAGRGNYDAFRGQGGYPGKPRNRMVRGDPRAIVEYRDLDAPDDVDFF
UniProt Q9NUL3: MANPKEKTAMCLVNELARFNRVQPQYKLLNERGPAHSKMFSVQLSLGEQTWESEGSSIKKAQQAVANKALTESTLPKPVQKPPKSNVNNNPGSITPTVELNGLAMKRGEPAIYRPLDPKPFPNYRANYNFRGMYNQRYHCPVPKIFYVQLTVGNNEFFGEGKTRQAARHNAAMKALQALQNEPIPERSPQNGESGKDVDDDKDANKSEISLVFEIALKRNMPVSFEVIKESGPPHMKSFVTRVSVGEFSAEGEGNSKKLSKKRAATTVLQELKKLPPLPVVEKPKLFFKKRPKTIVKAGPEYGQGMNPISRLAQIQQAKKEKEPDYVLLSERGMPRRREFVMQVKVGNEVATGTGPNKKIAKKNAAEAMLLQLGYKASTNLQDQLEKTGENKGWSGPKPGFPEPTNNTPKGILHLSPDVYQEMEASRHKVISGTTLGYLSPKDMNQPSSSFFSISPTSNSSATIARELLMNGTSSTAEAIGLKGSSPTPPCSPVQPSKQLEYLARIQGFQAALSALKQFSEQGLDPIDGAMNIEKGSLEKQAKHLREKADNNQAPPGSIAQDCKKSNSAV
UniProt O43815: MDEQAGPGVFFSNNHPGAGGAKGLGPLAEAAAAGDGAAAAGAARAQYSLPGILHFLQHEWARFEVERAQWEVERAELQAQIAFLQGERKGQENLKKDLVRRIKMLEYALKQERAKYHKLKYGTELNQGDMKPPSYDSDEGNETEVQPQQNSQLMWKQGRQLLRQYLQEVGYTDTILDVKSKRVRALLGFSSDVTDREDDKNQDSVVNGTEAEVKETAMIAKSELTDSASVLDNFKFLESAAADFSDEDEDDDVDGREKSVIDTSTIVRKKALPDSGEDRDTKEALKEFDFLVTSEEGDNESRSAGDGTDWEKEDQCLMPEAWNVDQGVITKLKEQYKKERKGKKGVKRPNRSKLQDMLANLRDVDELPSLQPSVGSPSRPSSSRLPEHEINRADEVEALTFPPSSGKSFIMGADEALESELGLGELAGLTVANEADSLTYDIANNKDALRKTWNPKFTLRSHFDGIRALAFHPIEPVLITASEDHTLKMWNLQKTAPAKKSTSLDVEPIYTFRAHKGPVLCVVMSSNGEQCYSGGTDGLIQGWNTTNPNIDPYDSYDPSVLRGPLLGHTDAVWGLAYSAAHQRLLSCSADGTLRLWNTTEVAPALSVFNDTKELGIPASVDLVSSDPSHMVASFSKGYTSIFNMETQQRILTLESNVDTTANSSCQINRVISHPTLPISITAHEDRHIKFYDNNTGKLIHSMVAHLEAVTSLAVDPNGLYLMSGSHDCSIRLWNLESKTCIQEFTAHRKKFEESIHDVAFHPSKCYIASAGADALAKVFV
UniProt P84103: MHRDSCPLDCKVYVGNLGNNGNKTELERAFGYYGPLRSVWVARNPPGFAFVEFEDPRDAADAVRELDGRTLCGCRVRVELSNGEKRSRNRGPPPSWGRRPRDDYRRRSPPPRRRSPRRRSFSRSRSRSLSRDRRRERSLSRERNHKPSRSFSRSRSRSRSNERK
UniProt Q8IYB8: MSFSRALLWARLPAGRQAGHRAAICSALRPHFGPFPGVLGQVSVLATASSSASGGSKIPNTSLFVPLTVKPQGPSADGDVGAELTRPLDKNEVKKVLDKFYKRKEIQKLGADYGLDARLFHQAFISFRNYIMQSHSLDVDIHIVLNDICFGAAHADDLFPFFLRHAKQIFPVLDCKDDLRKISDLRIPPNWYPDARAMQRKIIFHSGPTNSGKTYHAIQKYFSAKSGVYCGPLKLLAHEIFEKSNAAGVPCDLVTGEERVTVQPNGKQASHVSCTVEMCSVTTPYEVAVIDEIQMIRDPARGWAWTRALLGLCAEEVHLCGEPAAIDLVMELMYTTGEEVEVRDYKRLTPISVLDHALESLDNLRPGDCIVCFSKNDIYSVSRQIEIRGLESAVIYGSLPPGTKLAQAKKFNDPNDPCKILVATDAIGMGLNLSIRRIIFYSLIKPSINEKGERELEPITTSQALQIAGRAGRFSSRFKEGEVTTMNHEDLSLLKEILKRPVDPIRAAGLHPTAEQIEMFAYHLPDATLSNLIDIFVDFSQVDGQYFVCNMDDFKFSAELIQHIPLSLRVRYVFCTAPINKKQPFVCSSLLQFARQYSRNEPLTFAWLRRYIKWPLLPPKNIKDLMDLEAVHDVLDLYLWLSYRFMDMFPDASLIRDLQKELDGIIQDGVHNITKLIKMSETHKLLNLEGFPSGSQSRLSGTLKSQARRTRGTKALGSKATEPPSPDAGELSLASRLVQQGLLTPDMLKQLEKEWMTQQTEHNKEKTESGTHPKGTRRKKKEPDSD
UniProt Q658P3: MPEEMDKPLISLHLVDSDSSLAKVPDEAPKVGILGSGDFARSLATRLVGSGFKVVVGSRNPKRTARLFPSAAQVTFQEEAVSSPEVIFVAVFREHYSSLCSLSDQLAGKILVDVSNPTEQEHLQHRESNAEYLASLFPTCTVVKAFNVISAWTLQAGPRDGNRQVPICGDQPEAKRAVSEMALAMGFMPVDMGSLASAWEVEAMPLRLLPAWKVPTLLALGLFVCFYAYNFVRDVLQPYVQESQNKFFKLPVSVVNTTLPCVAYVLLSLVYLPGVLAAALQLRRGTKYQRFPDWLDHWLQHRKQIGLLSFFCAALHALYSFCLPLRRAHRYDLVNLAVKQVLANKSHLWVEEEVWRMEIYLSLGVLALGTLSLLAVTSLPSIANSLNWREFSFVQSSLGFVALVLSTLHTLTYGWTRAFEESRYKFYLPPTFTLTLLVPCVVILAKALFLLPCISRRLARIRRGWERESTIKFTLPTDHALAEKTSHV
UniProt P40763, whole entry, looked up: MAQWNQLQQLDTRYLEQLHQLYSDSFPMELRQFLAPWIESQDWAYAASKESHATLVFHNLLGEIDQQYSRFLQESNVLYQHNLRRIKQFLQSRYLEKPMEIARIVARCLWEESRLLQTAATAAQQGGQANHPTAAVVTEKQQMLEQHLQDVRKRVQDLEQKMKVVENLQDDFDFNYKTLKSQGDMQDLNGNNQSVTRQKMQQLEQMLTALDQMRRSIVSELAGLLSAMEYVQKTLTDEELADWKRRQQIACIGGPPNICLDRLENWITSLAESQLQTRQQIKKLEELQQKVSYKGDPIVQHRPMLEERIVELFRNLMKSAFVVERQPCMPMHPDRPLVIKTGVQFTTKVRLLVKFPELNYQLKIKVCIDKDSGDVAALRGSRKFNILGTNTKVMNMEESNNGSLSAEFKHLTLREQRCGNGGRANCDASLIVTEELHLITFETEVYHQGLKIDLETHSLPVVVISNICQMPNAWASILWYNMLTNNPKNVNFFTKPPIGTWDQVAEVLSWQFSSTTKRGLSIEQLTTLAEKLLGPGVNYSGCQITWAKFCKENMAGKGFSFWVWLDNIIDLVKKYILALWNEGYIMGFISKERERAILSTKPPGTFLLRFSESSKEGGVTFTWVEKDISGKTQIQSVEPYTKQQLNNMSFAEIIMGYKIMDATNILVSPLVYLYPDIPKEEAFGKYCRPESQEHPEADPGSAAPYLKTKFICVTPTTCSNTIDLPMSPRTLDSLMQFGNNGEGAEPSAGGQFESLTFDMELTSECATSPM
UniProt Q9Y3F4: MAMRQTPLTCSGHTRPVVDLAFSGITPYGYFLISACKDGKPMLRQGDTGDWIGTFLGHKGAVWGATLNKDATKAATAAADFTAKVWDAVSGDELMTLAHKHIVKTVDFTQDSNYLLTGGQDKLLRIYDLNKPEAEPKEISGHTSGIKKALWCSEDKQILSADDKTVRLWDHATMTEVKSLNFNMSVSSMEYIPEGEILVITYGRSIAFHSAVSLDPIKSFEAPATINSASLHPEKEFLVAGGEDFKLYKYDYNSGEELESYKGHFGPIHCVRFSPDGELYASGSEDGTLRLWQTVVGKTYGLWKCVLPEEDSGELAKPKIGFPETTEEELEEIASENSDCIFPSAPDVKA
UniProt Q8IX01: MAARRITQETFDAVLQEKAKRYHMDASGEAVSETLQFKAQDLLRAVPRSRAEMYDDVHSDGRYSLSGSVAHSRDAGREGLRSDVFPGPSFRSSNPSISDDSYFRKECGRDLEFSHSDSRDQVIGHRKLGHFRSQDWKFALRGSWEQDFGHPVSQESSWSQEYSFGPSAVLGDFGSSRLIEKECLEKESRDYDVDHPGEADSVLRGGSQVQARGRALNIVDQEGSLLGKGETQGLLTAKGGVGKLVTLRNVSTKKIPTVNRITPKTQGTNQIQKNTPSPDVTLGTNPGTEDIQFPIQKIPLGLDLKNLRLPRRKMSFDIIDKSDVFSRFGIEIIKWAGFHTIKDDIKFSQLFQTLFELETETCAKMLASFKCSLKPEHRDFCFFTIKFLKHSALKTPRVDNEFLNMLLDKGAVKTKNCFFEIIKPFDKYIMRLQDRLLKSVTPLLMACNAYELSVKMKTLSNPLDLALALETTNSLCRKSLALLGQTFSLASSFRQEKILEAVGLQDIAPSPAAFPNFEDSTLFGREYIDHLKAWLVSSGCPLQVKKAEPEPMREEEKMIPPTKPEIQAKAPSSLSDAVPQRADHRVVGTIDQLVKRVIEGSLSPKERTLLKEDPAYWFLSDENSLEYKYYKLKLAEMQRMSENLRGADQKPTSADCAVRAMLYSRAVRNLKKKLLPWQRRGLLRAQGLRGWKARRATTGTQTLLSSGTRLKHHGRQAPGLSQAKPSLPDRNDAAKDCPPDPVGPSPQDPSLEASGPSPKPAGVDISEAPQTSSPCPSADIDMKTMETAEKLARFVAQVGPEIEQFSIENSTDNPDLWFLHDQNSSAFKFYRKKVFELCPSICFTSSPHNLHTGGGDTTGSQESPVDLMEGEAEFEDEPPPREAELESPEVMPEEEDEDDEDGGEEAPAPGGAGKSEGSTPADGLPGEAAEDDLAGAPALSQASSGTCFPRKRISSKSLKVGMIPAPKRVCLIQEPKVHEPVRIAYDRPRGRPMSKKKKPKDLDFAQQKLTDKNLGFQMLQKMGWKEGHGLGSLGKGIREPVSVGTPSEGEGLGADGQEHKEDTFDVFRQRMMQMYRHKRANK

| Target | probe-labelled cysteine peptide fold change |
| --- | --- |
| SWAP70_Q9UH65_260_GDILLDENCCVESLPDK (UniProt Q9UH65) | 0.124 |
| SRRT_Q9BXP5_412_DAAGLECK (UniProt Q9BXP5) | -0.158 |
| STAU2_Q9NUL3_11_TAMCLVNELAR (UniProt Q9NUL3) | 0.0183 |
| STRN_O43815_740_TCIQEFTAHR (UniProt O43815) | 0.126 |
| SUPT6H_Q7KZ85_1021_TQLVTMCHMGPK (UniProt Q7KZ85) | -0.0816 |
| STAM2_O75886_85_IFHLEVCSR (UniProt O75886) | 0.085 |
| SSRP1_Q08945_139_FGGQLLSFDIGDQPVFEIPLSNVSQCTTGK (UniProt Q08945) | -0.12 |
| SRSF3_P84103_6_DSCPLDCK (UniProt P84103) | -0.0133 |
| SUPV3L1_Q8IYB8_251_SNAAGVPCDLVTGEER (UniProt Q8IYB8) | -0.0675 |
| STEAP3_Q658P3_168_QVPICGDQPEAK (UniProt Q658P3) | -0.39 |
| STAT3_P40763_108_CLWEESR (UniProt P40763) | 0.0539 |
| SUPT5H_O00267_740_VELHSTCQTISVDR (UniProt O00267) | -0.0717 |
| STIP1_P31948_461_ALDLDSSCK (UniProt P31948) | 0.279 |
| STARD5_Q9NSY2_67_GEGIVYGTLEEVWDCVK (UniProt Q9NSY2) | 0.0356 |
| STARD3_Q14849_317_TVTACQILQR (UniProt Q14849) | 0.0513 |
| STRAP_Q9Y3F4_305_CVLPEEDSGELAK (UniProt Q9Y3F4) | 0.107 |
| SUGP2_Q8IX01_970_VCLIQEPK (UniProt Q8IX01) | -0.0275 |

Individual results from the results shown.
probe-labelled cysteine peptide fold change, SRRT_Q9BXP5_412_DAAGLECK (UniProt Q9BXP5) is entered as -0.158
probe-labelled cysteine peptide fold change, STEAP3_Q658P3_168_QVPICGDQPEAK (UniProt Q658P3) is entered as -0.39

From the supplement of paper PMC12067093, “Discovery and optimisation of a covalent ligand for TRIM25 and its application to targeted protein ubiquitination” (Chemical Science, 2025)
